Source: publication PMC3854969
No constants are given. Whether binding was seen depends on the method and setting. In cells and extracts the contact can be indirect. A yes stands for co-enrichment or nearness to the bait. Other partners may have been found.

Amino acid sequences for entries named in this document (tags omitted).
UniProt Q3SXY8: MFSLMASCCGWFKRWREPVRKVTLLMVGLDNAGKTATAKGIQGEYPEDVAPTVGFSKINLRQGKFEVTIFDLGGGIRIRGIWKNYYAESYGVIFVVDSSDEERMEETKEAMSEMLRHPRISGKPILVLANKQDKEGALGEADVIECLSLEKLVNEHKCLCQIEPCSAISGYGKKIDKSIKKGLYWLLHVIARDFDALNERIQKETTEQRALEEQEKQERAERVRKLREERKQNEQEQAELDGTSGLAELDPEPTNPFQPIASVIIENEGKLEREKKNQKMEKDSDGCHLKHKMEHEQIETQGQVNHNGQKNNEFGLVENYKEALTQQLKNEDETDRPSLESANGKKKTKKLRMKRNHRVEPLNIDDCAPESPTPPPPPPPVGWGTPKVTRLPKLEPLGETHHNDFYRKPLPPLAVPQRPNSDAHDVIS
UniProt Q9Y4R8: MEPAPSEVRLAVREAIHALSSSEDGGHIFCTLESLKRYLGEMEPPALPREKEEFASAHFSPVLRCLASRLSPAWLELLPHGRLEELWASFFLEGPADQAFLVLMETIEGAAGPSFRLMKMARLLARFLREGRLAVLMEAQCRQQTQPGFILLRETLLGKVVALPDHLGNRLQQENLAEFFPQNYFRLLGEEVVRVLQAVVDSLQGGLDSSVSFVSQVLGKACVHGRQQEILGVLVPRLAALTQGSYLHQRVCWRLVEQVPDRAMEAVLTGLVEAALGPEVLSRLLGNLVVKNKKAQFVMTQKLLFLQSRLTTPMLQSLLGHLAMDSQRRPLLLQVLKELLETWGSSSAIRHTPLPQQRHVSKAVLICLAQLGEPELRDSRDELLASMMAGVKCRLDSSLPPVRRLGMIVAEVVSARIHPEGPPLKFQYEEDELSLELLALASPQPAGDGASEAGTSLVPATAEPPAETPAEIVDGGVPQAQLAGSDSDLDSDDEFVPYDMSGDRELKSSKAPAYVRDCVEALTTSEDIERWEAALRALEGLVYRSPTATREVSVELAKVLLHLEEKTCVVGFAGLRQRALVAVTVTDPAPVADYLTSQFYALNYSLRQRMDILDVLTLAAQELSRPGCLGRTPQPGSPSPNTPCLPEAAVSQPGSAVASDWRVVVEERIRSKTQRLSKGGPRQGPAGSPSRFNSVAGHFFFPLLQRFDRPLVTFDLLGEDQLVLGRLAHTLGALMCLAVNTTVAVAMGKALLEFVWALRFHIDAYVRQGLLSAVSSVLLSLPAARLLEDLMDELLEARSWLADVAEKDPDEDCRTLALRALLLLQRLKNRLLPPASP
UniProt O15397: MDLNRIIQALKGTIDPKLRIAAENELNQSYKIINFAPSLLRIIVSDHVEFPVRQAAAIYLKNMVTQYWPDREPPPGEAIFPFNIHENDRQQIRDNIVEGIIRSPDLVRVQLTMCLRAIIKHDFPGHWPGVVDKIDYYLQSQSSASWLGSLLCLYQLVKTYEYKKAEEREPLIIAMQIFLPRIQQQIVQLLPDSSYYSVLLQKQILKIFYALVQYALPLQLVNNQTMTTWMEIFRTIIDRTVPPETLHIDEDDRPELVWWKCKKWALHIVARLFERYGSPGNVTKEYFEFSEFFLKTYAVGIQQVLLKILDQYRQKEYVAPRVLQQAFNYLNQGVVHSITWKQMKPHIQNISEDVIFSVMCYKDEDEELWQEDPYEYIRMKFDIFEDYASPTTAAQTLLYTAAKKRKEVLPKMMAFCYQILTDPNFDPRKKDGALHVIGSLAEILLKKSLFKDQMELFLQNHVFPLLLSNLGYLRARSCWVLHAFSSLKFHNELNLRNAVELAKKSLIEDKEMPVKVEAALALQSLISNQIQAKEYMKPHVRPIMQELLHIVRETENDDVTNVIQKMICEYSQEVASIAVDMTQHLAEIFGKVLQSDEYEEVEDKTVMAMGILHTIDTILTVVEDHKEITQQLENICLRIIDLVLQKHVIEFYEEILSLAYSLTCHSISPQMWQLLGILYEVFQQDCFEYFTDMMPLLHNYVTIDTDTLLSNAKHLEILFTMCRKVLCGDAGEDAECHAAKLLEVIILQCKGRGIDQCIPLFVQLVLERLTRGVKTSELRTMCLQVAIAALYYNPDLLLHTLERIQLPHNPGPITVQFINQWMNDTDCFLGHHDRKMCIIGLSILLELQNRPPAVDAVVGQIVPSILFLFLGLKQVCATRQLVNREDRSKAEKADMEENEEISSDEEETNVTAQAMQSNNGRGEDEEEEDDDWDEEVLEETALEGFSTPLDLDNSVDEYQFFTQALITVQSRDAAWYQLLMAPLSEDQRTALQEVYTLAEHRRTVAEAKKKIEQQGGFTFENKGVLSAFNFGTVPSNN
UniProt P55786: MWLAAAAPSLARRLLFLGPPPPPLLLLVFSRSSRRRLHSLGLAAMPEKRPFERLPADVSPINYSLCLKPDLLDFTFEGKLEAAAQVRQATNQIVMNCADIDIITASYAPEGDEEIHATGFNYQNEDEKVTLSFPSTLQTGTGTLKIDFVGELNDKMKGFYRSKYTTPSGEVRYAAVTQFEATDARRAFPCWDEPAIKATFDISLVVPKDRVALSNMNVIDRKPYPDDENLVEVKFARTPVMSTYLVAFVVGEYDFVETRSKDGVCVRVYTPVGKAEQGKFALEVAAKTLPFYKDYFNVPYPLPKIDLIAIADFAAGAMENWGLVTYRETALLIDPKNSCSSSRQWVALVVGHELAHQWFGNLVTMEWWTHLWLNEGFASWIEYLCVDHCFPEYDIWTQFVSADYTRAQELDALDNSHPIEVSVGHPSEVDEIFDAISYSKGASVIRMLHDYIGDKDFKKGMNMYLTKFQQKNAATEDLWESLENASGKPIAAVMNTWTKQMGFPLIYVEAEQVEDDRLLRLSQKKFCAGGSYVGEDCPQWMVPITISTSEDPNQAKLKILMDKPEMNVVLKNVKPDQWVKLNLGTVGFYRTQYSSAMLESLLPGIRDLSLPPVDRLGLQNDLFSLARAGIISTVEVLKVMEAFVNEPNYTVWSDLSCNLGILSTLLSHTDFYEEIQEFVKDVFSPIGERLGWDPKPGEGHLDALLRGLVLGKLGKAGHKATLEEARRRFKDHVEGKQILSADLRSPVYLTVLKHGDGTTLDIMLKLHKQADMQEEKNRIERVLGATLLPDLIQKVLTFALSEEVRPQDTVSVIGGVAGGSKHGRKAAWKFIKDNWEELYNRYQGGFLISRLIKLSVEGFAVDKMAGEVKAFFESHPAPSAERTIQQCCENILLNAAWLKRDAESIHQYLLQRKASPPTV
UniProt O00410: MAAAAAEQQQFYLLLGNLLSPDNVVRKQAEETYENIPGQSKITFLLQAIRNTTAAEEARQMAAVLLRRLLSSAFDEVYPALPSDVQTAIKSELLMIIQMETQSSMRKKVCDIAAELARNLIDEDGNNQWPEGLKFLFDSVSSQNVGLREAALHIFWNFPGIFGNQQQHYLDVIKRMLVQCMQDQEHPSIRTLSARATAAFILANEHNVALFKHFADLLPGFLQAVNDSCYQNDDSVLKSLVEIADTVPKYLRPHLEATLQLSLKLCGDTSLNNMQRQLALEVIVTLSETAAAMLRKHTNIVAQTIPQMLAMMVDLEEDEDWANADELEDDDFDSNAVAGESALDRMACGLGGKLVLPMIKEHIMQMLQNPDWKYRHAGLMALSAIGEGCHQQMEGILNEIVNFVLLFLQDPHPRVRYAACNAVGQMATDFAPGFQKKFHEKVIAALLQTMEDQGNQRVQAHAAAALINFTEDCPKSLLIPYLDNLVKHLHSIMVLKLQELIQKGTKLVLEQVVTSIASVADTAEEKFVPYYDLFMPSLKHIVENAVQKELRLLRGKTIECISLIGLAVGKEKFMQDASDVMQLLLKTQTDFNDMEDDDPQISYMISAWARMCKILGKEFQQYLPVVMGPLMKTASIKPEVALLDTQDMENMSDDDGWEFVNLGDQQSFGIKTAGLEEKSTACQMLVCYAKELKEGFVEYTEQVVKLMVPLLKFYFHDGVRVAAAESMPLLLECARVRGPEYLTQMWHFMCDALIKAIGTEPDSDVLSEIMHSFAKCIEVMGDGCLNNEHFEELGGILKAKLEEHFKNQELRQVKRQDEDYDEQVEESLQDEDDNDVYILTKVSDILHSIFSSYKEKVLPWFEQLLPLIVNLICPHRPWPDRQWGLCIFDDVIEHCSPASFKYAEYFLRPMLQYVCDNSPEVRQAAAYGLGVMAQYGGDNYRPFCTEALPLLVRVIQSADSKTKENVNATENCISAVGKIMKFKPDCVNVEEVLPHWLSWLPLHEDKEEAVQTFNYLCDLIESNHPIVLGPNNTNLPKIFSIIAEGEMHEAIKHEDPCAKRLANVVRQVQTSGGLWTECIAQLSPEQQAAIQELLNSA
UniProt O75155: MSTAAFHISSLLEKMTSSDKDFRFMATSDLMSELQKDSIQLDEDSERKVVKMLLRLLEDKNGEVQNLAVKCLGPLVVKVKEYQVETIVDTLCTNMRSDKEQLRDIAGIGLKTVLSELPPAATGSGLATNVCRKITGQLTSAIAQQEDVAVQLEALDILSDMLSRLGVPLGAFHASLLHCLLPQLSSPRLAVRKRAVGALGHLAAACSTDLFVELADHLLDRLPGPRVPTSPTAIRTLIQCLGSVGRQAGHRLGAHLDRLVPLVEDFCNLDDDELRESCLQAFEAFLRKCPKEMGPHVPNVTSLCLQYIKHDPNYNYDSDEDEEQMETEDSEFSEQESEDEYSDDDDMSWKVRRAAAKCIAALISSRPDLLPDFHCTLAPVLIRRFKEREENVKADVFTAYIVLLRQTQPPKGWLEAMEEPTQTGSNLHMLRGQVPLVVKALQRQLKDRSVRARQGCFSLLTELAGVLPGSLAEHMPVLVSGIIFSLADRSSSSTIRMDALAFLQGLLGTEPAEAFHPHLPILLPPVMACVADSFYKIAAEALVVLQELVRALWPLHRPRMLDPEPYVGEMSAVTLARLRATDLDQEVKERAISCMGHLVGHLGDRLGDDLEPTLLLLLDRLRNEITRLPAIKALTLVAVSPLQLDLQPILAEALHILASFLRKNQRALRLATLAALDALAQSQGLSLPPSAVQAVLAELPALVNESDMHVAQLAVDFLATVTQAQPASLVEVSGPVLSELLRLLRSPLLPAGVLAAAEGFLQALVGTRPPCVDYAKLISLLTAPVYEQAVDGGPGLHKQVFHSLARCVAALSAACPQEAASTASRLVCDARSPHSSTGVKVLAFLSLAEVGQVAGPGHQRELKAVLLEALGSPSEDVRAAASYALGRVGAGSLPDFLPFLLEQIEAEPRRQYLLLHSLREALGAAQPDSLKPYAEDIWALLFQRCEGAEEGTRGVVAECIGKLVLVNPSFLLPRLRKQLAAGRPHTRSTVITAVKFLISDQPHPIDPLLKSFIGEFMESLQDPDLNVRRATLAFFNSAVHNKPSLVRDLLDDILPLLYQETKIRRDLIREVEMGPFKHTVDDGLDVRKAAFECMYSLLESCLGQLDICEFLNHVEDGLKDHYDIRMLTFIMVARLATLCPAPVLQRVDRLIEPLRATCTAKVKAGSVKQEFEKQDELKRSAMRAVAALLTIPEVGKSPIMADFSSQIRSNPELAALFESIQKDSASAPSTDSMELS
UniProt Q92973: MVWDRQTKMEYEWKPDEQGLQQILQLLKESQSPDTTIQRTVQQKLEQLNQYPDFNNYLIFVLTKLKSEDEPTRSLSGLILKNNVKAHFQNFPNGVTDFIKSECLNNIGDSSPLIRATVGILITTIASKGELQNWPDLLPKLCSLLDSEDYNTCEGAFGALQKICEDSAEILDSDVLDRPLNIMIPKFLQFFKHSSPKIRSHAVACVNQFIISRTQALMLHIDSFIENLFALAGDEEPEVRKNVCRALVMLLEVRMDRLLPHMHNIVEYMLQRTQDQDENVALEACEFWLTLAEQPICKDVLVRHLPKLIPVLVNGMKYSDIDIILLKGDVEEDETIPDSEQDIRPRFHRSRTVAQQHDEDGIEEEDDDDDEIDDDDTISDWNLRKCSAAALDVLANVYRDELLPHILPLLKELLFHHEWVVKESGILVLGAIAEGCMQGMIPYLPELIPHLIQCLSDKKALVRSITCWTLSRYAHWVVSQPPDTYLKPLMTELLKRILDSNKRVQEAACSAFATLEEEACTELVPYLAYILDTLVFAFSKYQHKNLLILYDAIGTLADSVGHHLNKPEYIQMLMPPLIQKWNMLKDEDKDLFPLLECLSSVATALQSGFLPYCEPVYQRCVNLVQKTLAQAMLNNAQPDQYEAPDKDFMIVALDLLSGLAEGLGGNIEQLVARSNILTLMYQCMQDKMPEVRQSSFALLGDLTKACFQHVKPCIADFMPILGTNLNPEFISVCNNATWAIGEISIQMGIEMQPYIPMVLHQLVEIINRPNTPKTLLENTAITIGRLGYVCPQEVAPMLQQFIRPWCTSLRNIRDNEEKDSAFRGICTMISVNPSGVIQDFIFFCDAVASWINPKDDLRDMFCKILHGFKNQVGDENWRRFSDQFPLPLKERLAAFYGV

How the values were obtained:
[1] = target: N-terminally SF (Strep-Flag)-tagged human ARL13B (wild type) (human) (UniProt Q3SXY8); assay: affinity purification with mass spectrometry; SF-TAP: two steps (Strep-Tactin Superflow, then anti-Flag M2 agarose, Flag peptide elution) from lysates of HEK293T cells transiently expressing SF-tagged ARL13B; lysis in TBS with 0.5% Nonidet-P40, 4°C; compared with SF tag alone; LC-MS/MS
[2] = target: N-terminally SF (Strep-Flag)-tagged human ARL13B (wild type) (human) (UniProt Q3SXY8); assay: affinity purification with mass spectrometry; SILAC with one-step Strep-Tactin purification from HEK293T lysates; SF-tagged ARL13B against SF-TAP alone or mutated SF-tagged ARL13B; eluates combined; quantitative MS, at least 2-fold enrichment

Molecule | binding [1] | binding [2]
DDB1 and CUL4 associated factor 8 (from UniProt Q5TAQ9 1-597) | binds | binds
Telomere maintenance 2 (from UniProt Q9Y4R8 1-837) | binds | binds
ankyrin repeat domain 13A (from UniProt Q8IZ07 1-590) | binds | binds
importin 8 (from UniProt O15397 1-1037) | binds | binds
gem associated protein 4 (from UniProt P57678 1-1058) | binds | binds
exportin 5 (from UniProt Q9HAV4 1-1204) | binds | binds
Fanconi anemia, complementation group D2 (from UniProt Q9BXW9 1-1451) | binds | binds
aminopeptidase puromycin sensitive (from UniProt P55786 1-919) | binds | binds
major histocompatibility complex, class I, C (from UniProt P10321 25-366) | binds | binds
importin 5 (from UniProt O00410 1-1097) | binds | binds
tetratricopeptide repeat domain 27 (from UniProt Q6P3X3 1-843) | binds | binds
ribosomal protein, large, P1 (from UniProt P05386 1-114) | binds | binds
cullin-associated and neddylation-dissociated 2 (from UniProt O75155 1-1236) | binds | binds
transportin 1 (from UniProt Q92973 1-898) | binds | binds
ataxin 10 (protein, UniProt Q9UBB4 1-475) MAAPRPPPARLSGVMVPAPIQDLEALRALTALFKEQRNRETAPRTIFQRVLDILKKSSHAVELACRDPSQVENLASSLQLITECFRCLRNACIECSVNQNSIRNLDTIGVAVDLILLFRELRVEQESLLTAFRCGLQFLGNIASRNEDSQSIVWVHAFPELFLSCLNHPDKKIVAYSSMILFTSLNHERMKELEENLNIAIDVIDAYQKHPESEWPFLIITDLFLKSPELVQAMFPKLNNQERVTLLDLMIAKITSDEPLTKDDIPVFLRHAELIASTFVDQCKTVLKLASEEPPDDEEALATIRLLDVLCEMTVNTELLGYLQVFPGLLERVIDLLRVIHVAGKETTNIFSNCGCVRAEGDISNVANGFKSHLIRLIGNLCYKNKDNQDKVNELDGIPLILDNCNISDSNPFLTQWVIYAIRNLTEDNSQNQDLIAKMEEQGLADASLLKKVGFEVEKKGEKLILKSTRDTPKP | binds | binds
peroxisomal biogenesis factor 19 (protein, UniProt P40855 1-299) MAAAEEGCSVGAEADRELEELLESALDDFDKAKPSPAPPSTTTAPDASGPQKRSPGDTAKDALFASQEKFFQELFDSELASQATAEFEKAMKELAEEEPHLVEQFQKLSEAAGRVGSDMTSQQEFTSCLKETLSGLAKNATDLQNSSMSEEELTKAMEGLGMDEGDGEGNILPIMQSIMQNLLSKDVLYPSLKEITEKYPEWLQSHRESLPPEQFEKYQEQHSVMCKICEQFEAETPTDSETTQKARFEMVLDLMQQLQDLGHPPKELAGEMPPGLNFDLDALNLSGPPGASGEQCLIM | binds | binds
armadillo repeat containing 6 (protein, UniProt Q6NXE6 1-501) MSERCCSRYSSGASIGCTPTSTQAKMVSKRIAQETFDAAVRENIEEFAMGPEEAVKEAVEQFESQGVDLSNIVKTAPKVSADGSQEPTHDILQMLSDLQESVASSRPQEVSAYLTRFCDQCKQDKACRFLAAQKGAYPIIFTAWKLATAGDQGLLLQSLNALSVLTDGQPDLLDAQGLQLLVATLTQNADEADLTCSGIRCVRHACLKHEQNRQDLVKAGVLPLLTGAITHHGHHTDVVREACWALRVMTFDDDIRVPFGHAHNHAKMIVQENKGLKVLIEATKAFLDNPGILSELCGTLSRLAIRNEFCQEVVDLGGLSILVSLLADCNDHQMRDQSGVQELVKQVLSTLRAIAGNDDVKDAIVRAGGTESIVAAMTQHLTSPQVCEQSCAALCFLALRKPDNSRIIVEGGGAVAALQAMKAHPQKAGVQKQACMLIRNLVAHGQAFSKPILDLGAEALIMQARSAHRDCEDVAKAALRDLGCHVELRELWTGQRGNLAP | binds | binds
WD repeat domain 17 (protein, UniProt Q8IZU2 1-1322) MAWMTYISNWFEQDDWYEGLQRANMSQVRQVGLLAAGCQPWNKDVCAASGDRFAYCATLAIYIYQLDHRYNEFKLHAIMSEHKKTITAISWCPHNPDLFASGSTDNLVIIWNVAEQKVIAKLDSTKGIPASLSWCWNAEDVVAFVSHRGPLFIWTISGPDSGVIVHKDAHSFLSDICMFRWHTHQKGKVVFGHIDGSLSIFHPGNKNQKHVLRPESLEGTDEEDPVTALEWDPLSTDYLLVVNLHYGIRLVDSESLSCITTFNLPSAAASVQCLAWVPSAPGMFITGDSQVGVLRIWNVSRTTPIDNLKLKKTGFHCLHVLNSPPRKKFSVQSPTKNHYTSSTSEAVPPPTLTQNQAFSLPPGHAVCCFLDGGVGLYDMGAKKWDFLRDLGHVETIFDCKFKPDDPNLLATASFDGTIKVWDINTLTAVYTSPGNEGVIYSLSWAPGGLNCIAGGTSRNGAFIWNVQKGKIIQRFNEHGTNGIFCIAWSHKDSKRIATCSSDGFCIIRTIDGKVLHKYKHPAAVFGCDWSQNNKDMIATGCEDTNVRVYYVATSSDQPLKVFSGHTAKVFHVKWSPLREGILCSGSDDGTVRIWDYTQDACINILNGHTAPVRGLMWNTEIPYLLISGSWDYTIKVWDTREGTCVDTVYDHGADVYGLTCHPSRPFTMASCSRDSTVRLWSLTALVTPVQINILADRSWEEIIGNTDYAIEPGTPPLLCGKVSRDIRQEIEKLTANSQVKKLRWFSECLSPPGGSDNLWNLVAVIKGQDDSLLPQNYCKGIMHLKHLIKFRTSEAQELTTVKMSKFGGGIGVPAKEERLKEAAEIHLRLGQIQRYCELMVELGEWDKALSIAPGVSVKYWKKLMQRRADQLIQEDKDDVIPYCIAIGDVKKLVHFFMSRGQLKEALLVAQAACEGNMQPLHVSVPKGASYSDDIYKEDFNELLHKVSKELAEWYFQDGRAVLAACCHLAIDNIELAMAYLIRGNELELAVCVGTVLGESAAPATHYALELLARKCMMISVCFPCVGYSVPFCYVNRNLAADLLLMIPDNELHLIKLCAFYPGCTEEINDLHDKCKLPTVEECMQLAETARADDNIFETVKYYLLSQEPEKALPIGISFVKEYISSSDWTLDTIYPVLDLLSYIRTEKLLLHTCTEARNELLILCGYIGALLAIRRQYQSIVPALYEYTSQLLKRREVSVPLKIEYLSEELDAWRACTQSTNRSLEDSPYTPPSDSQRMIYATLLKRLKEESLKGIIGPDYVTGSNLPSHSDIHISCLTGLKIQGPVFFLEDGKSAISLNDALMWAKVNPFSPLGTGIRLNPF | binds | binds
7-dehydrocholesterol reductase (protein, UniProt Q9UBM7 1-475) MAAKSQPNIPKAKSLDGVTNDRTASQGQWGRAWEVDWFSLASVIFLLLFAPFIVYYFIMACDQYSCALTGPVVDIVTGHARLSDIWAKTPPITRKAAQLYTLWVTFQVLLYTSLPDFCHKFLPGYVGGIQEGAVTPAGVVNKYQINGLQAWLLTHLLWFANAHLLSWFSPTIIFDNWIPLLWCANILGYAVSTFAMVKGYFFPTSARDCKFTGNFFYNYMMGIEFNPRIGKWFDFKLFFNGRPGIVAWTLINLSFAAKQRELHSHVTNAMVLVNVLQAIYVIDFFWNETWYLKTIDICHDHFGWYLGWGDCVWLPYLYTLQGLYLVYHPVQLSTPHAVGVLLLGLVGYYIFRVANHQKDLFRRTDGRCLIWGRKPKVIECSYTSADGQRHHSKLLVSGFWGVARHFNYVGDLMGSLAYCLACGGGHLLPYFYIIYMAILLTHRCLRDEHRCASKYGRDWERYTAAVPYRLLPGIF | binds | binds
2′,3′-cyclic nucleotide 3′ phosphodiesterase (protein, UniProt P09543 1-421) MNRGFSRKSHTFLPKIFFRKMSSSGAKDKPELQFPFLQDEDTVATLLECKTLFILRGLPGSGKSTLARVIVDKYRDGTKMVSADAYKITPGARGAFSEEYKRLDEDLAAYCRRRDIRILVLDDTNHERERLEQLFEMADQYQYQVVLVEPKTAWRLDCAQLKEKNQWQLSADDLKKLKPGLEKDFLPLYFGWFLTKKSSETLRKAGQVFLEELGNHKAFKKELRQFVPGDEPREKMDLVTYFGKRPPGVLHCTTKFCDYGKAPGAEEYAQQDVLKKSYSKAFTLTISALFVTPKTTGARVELSEQQLQLWPSDVDKLSPTDNLPRGSRAHITLGCAADVEAVQTGLDLLEILRQEKGGSRGEEVGELSRGKLYSLGNGRWMLTLAKNMEVRAIFTGYYGKGKPVPTQGSRKGGALQSCTII | binds | binds
ADP-ribosylation factor-like 1 (protein, UniProt P40616 1-181) MGGFFSSIFSSLFGTREMRILILGLDGAGKTTILYRLQVGEVVTTIPTIGFNVETVTYKNLKFQVWDLGGQTSIRPYWRCYYSNTDAVIYVVDSCDRDRIGISKSELVAMLEEEELRKAILVVFANKQDMEQAMTSSEMANSLGLPALKDRKWQIFKTSATKGTGLDEAMEWLVETLKSRQ | binds | binds
nucleotide binding protein 2 (protein, UniProt Q9Y5Y2 1-271) MEAAAEPGNLAGVRHIILVLSGKGGVGKSTISTELALALRHAGKKVGILDVDLCGPSIPRMLGAQGRAVHQCDRGWAPVFLDREQSISLMSVGFLLEKPDEAVVWRGPKKNALIKQFVSDVAWGELDYLVVDTPPGTSDEHMATIEALRPYQPLGALVVTTPQAVSVGDVRRELTFCRKTGLRVMGIVENMSGFTCPHCTECTSVFSRGGGEELAQLAGVPFLGSVPLDPALMRTLEEGHDFIQEFPGSPAFAALTSIAQKILDATPACLP | binds | binds
